Some results were stated once for a whole list of compounds, not compound by compound.
Test system: endogenous DNA-PKcs, NuMA and PARP in HeLa cell lysates
Experiment: Cleavage of endogenous substrates in HeLa lysates after adding purified granzyme B, with caspase inhibitors
Type: biochemical
Method: Control HeLa lysates were prepared using methods commonly applied in the art, as described in Casciola-Rosen et al., 1994. […] The mixtures were incubated for 15 mn on ice to facilitate binding of the inhibitors to proteases prior to performing cleavage reactions at 37° C. for 60 min. After electrophoresing the samples on 10% SDS-polyacrylamide gels containing 0.087% bisacrylamide, the intact proteins and their cleaved fragments were visualized by immunoblotting.

N-(N-Ac-Asp-Glu-Val)-3-amino-4-oxobutanoic acid [Ac-DEVD-CHO]
inhibition of cleavage of NuMA and DNA-PKcs (inhibitor added 15 minutes prior to granzyme B, 5 separate experiments): 20-40%
inhibition of formation of the 250 kDa N-terminal fragment of DNA-PKcs (inhibitor added prior to granzyme B): 20-40%

Source: US6855515B1, “Autoantigenic fragments, methods and assays” (Merck & Co., Inc., priority 1998, dated 2005)
